In assay [1] the target is T1, Myc-VDR (Myc-fused vitamin D receptor) (UniProt P11473).
T1 sequence: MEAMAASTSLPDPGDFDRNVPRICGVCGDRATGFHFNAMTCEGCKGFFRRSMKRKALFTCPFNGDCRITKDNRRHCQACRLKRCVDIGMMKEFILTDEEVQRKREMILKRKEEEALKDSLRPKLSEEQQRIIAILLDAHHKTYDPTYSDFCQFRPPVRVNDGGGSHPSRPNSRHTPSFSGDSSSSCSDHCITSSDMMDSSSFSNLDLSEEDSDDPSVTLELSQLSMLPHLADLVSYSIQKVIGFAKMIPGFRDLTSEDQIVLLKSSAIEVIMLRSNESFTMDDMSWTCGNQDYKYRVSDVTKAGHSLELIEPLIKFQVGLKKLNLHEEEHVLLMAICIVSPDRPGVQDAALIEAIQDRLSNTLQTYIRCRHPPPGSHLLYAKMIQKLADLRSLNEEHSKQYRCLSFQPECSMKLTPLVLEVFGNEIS
As to the kind of experiment: co-IP; cells expressing Myc-VDR and β-catenin lysed; 5 mg of protein immunoprecipitated with 100 μg of Myc antibody (Protein A/G Immunoprecipitation Kit); β-catenin detected by Western blot.

The chains behind the UniProt entries cited, without tags or fusion partners.
UniProt P35222: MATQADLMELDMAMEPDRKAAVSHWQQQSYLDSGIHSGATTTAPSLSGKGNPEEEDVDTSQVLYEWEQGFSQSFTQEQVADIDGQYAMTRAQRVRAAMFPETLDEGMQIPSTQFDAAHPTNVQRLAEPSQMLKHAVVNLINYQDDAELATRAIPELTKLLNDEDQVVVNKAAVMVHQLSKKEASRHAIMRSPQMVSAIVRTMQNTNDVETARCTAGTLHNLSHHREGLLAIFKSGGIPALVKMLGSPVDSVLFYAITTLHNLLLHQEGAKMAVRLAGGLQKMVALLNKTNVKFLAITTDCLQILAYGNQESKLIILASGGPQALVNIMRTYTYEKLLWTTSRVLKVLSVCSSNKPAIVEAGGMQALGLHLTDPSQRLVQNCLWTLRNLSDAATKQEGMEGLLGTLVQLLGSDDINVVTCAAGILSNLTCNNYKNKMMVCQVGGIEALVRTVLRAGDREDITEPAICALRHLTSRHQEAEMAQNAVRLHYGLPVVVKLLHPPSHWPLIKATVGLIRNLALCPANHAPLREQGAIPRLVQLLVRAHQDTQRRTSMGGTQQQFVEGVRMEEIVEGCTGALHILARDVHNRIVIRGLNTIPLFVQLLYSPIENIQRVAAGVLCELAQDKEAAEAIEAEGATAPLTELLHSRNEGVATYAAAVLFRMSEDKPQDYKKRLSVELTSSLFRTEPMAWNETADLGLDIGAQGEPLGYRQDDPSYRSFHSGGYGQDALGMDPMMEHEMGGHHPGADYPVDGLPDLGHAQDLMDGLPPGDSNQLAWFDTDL

For assay [2], the target named is GST-β-catenin fusion protein (UniProt P35222). As to the kind of experiment: pull-down; about 100 μg GST-β-catenin immobilised on 50 μL glutathione agarose (4 °C, 1 h); about 100 μg Myc-VDR fusion protein added, 4 °C overnight; eluted with 10 mM glutathione in PBS (pH 8.0); Western blot.

These are yes or no findings as the source states them, for the method shown. Binding seen in cells or lysates may run through a third protein. Some entries that bind do so weakly or less than the wild type. Tags and fused reporters may be left off the sequences shown.

On to β-catenin (from UniProt P35222 1-781), for which the binding entry in assay [1] is reported as “binds”.

B1: Myc-VDR (Myc-fused vitamin D receptor) (protein, UniProt P11473 1-427)
chain: T1 sequence
For B1, in assay [2], the binding entry is reported as “binds”.

(Values after paper PMC10091620.)
